Data reported in article doi:10.1101/243592.
No constants are given. Whether binding was seen depends on the method and setting. For some assays here: Binding calls can cover weak binding; strength is not graded here. For some assays here: Where a sequence is shown, tags or fusion partners need not be part of it. For some assays here: In cells and extracts the contact can be indirect.

Sequences of proteins named here, by UniProt entry; tags and fusion partners are left off. A change or cut given only in a name is not applied to a line headed by its entry.
UniProt P08253: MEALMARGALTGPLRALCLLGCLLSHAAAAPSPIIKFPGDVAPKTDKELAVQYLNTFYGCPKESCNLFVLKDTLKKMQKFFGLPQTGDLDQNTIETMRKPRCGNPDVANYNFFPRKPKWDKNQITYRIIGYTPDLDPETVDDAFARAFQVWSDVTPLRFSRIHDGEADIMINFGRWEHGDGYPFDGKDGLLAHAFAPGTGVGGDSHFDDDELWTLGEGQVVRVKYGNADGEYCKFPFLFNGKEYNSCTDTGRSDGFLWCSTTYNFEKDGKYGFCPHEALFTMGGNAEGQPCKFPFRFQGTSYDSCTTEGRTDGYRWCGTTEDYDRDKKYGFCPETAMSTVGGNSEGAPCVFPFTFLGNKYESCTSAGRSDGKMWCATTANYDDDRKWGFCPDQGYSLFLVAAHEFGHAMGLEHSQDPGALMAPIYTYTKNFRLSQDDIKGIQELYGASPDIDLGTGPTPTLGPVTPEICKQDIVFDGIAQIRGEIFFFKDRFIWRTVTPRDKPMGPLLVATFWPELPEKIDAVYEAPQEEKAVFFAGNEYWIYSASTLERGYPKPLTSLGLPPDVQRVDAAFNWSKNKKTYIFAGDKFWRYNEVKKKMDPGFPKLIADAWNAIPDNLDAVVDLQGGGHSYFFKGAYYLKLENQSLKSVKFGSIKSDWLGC
UniProt P14780: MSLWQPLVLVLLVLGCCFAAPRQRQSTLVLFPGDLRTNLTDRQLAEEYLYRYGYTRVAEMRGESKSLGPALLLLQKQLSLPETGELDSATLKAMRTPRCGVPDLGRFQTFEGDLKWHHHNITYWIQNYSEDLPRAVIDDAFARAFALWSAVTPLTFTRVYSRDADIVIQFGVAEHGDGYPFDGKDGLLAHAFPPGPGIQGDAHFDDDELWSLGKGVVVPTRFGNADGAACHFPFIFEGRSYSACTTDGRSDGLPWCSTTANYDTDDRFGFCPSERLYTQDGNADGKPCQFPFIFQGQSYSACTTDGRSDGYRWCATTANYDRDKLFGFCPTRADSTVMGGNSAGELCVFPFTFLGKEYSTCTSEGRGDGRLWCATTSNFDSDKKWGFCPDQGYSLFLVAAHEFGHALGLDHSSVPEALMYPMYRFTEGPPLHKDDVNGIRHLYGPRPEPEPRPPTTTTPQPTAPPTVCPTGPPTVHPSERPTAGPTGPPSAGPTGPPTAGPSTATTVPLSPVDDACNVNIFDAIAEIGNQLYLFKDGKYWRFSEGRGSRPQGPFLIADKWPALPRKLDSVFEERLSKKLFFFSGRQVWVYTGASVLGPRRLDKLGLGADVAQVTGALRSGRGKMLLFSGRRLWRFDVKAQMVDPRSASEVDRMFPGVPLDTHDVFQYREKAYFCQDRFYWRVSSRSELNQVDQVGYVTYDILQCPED

Key:
[1] = target: T1, N-α-Acetyltransferase 10 protein (Naa10p), endogenous (human (endogenous in MNNG/HOS)) (UniProt P41227); test: co-IP
T1 sequence: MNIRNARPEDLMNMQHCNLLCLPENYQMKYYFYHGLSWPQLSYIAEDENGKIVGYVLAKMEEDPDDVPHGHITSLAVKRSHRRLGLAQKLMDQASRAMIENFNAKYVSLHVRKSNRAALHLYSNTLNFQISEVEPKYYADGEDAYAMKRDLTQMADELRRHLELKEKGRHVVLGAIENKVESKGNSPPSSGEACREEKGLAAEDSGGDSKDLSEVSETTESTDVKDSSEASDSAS

[2] = target: T2, GST-Naa10p (full-length) (UniProt P41227); test: pull-down
T2 sequence: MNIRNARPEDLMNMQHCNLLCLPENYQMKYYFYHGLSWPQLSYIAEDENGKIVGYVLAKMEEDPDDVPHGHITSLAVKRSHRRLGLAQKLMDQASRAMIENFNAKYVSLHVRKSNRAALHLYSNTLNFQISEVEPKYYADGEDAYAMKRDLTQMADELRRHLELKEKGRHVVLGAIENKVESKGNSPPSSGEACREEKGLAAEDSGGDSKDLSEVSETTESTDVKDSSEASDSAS

[3] = target: T3, GST-Naa10p residues 59~235 (N-terminal-deleted Naa10p) (UniProt P41227); test: pull-down
T3 sequence: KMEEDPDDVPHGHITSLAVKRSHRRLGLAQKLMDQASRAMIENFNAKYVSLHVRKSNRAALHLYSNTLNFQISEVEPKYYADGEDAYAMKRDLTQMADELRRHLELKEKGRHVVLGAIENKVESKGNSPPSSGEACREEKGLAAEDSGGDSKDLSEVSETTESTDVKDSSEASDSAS

[4] = target: T4, GST-Naa10p residues 60~130 (acetyltransferase domain) (UniProt P41227); test: pull-down
T4 sequence: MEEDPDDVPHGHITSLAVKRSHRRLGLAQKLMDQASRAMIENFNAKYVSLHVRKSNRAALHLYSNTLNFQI

[5] = target: T5, GST-Naa10p residues 131~235 (C-terminal Naa10p) (UniProt P41227); test: condition: 20 µg GST fragment and 2 µg rMMP2 in 1 ml
T5 sequence: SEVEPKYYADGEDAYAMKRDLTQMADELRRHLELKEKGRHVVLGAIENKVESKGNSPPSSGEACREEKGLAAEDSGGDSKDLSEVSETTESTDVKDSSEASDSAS

[6] = target: T6, Naa15p, endogenous (human (endogenous in MNNG/HOS)) (UniProt Q9BXJ9); test: co-IP
T6 sequence: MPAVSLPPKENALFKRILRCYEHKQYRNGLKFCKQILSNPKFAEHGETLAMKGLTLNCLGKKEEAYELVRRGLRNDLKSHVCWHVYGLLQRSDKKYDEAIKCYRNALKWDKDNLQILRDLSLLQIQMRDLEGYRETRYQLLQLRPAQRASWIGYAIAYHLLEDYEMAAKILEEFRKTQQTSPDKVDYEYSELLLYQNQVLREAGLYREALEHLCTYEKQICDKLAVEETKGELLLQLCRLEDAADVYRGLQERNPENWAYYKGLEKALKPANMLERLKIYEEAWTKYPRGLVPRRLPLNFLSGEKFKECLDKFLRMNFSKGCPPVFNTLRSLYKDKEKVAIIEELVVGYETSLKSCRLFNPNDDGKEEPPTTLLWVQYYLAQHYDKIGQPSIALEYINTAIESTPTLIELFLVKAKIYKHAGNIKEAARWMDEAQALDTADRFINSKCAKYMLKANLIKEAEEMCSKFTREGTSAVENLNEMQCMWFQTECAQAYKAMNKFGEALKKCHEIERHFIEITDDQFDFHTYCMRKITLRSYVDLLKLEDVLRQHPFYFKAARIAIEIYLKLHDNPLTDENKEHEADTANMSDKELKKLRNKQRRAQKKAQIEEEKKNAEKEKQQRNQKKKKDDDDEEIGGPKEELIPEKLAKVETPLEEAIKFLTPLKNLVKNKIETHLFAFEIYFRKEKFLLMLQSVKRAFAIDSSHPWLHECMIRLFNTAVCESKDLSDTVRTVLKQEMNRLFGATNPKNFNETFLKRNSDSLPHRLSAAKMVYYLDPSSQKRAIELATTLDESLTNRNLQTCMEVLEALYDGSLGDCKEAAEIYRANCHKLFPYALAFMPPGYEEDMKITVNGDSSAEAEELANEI

[7] = target: matrix metalloproteinase (MMP)-2, endogenous (human (endogenous in MNNG/HOS)) (UniProt P08253); test: co-IP

## MMP-9, endogenous (from UniProt P14780)
[1]
  binding: no binding

## recombinant human MMP-2 (from UniProt P08253) (enzyme)
[2]
  binding: binds
[3]
  binding: binds
[4]
  binding: binds
[5]
  binding: no binding

## matrix metalloproteinase (MMP)-2, endogenous (from UniProt P08253)
[1]
  binding: binds
[6]
  binding: no binding

B1: N-α-Acetyltransferase 10 protein (Naa10p), endogenous (protein, UniProt P41227 1-235)
chain: MNIRNARPEDLMNMQHCNLLCLPENYQMKYYFYHGLSWPQLSYIAEDENGKIVGYVLAKMEEDPDDVPHGHITSLAVKRSHRRLGLAQKLMDQASRAMIENFNAKYVSLHVRKSNRAALHLYSNTLNFQISEVEPKYYADGEDAYAMKRDLTQMADELRRHLELKEKGRHVVLGAIENKVESKGNSPPSSGEACREEKGLAAEDSGGDSKDLSEVSETTESTDVKDSSEASDSAS
[7]
  binding: binds
